Source: patent US9988379B2, “GPR40 receptor agonist, methods of preparing the same, and pharmaceutical compositions containing the same as an active agent” (LG CHEM, LTD., priority 2012, dated 2018)

Chains of the proteins cited; added tags and fusions are not shown.
UniProt O14842, whole entry: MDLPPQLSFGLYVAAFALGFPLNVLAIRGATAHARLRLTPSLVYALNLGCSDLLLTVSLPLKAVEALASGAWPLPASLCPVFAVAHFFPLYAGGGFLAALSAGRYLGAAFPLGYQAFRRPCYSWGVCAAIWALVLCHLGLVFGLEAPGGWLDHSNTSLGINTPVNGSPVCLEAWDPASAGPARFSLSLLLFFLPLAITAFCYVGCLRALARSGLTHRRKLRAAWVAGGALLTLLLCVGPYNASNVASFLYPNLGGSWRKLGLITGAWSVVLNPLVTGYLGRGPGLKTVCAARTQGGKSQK

Target: human GPR40 (Homo sapiens, UniProt O14842)
Test: Induction of Ca2+ (calcium flux assay) using human GPR40 expression cell line
Type: cell-based
Conditions: read-out: EC0.5, CHO-K1 cells expressing human GPR40, concentration giving 50% of the intracellular calcium change induced by 10 μM TAK-875

Compound	pEC50 (numeric values)	pEC50 (class symbols)
O=C(O)CC1COc2cc(OCc3ccc4cnn(CC5CCCC5)c4c3)ccc21 (stereo not drawn)	6.30	–
O=C(O)C[C@@H](c1ccc(OCc2ccc3ccn(Cc4cnccn4)c3n2)cc1)c1ccon1	6.10	–
CC#C[C@@H](CC(=O)O)c1ccc(OCc2cccc3c2cnn3Cc2cnc(C)cn2)cc1	–	6.30 to 7.30

pEC50: −log10 of the molar value. Like-named read-outs stand apart in the source and are kept apart here. Structures were worked out from names or drawings and are uncertain.
